Data taken from patent US8722649B2, “Alpha-chloro and alpha-bromo phosphonate analogs of lysophosphatidic acid and methods of making and using thereof” (University of Utah Research Foundation, priority 2007, dated 2014).
At least one compound was matched to its structure with a doubt left.

Amino acid sequences for entries named in this document (tags omitted). A change or cut given only in a name is not applied to a line headed by its entry.
UniProt Q92633: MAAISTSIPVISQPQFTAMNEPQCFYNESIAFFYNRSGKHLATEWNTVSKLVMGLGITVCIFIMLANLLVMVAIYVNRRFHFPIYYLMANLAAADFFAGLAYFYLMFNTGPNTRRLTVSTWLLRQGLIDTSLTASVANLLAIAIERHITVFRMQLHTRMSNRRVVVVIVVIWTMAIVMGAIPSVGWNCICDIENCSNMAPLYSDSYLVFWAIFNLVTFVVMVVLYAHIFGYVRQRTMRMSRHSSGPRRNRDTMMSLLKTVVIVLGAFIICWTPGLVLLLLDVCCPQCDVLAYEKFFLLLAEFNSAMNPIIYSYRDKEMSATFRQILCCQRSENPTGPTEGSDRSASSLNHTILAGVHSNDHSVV

Legend:
human LPA1 = biological target: T1, human LPA1 (Homo sapiens, UniProt Q92633); experiment: Ca2+ mobilization assay, LPA1; format: cell-based; conditions: agonist/antagonist in words
T1 construct: expressed in transfected cells
Experimental: (§1) Receptor activation using Ca^2+ mobilization assay for diastereomers of 1 (also represented as 19b). The rat hepatoma (RH7777) cell lines individually expressing either LPA1, LPA2, LPA3 or LPA5 receptors and Chinese hamster ovary (CHO) cell line were analyzed to examine agonism and antagonism. […] CHO cells stably expressing either vector or LPA4 were kindly gifted from Dr. Shimizu (University of Tokyo, Tokyo, Japan).
(§2) Stable transformants of LPA1/2/3 receptors. RH7777 cells stably expressing each receptor were plated onto poly-L-lysine (PLL) (0.1 mg/mL)-coated black-wall clear-bottom 96-well plates (Corning Incorporated Life Sciences, Acton, Mass.) at a density of 5×10^4 cells/well and cultured overnight. The following day, the culture medium was replaced with modified Krebs buffer (120 mM NaCl, 5 mM KCl, 0.62 mM MgSO4, 1.8 mM CaCl2, 10 mM HEPES, 6 mM glucose, pH 7.4), and the cells were serum starved for 6 h. […]
After incubating the cells with Fura-2 AM, the cells were rinsed with Krebs buffer and changes in the intracellular Ca^2+ concentration were monitored by determining the ratio of emitted light intensities at 520 nm in response to excitation at 340 and 380 nm using FLEXstation II (Molecular Devices, Sunnyvale, Calif.). Each well was monitored for 80-120 sec. […] To determine antagonist properties, varying concentrations of the compounds were mixed with a constant concentration of LPA and responses were monitored. […] EC50, IC50, and Ki values were calculated by fitting a sigmoid function to data points with the nonlinear curve-fitting feature of KaleidaGraph (Synergy Software, Essex Junction, Vt.).
Receptor activation using Ca^2+ mobilization assay. […] Using a FLEXStation (Molecular Devices, Sunnyvale, Calif.), changes in intracellular Ca^2+ concentration were monitored. Ligand-induced changes in fluorescence were monitored for 80-120 seconds. Ca^2+ transients were quantified automatically by calculating the difference between maximum and baseline ratio values for each sample. […] EC50, IC50, and Ki values were calculated as described. […]

human LPA3 = biological target: T2, human LPA3 (Homo sapiens, UniProt Q9UBY5); experiment: Ca2+ mobilization assay, LPA3; format: cell-based; conditions: agonist/antagonist in words
T2 construct: expressed in transfected cells
T2 sequence (Q9UBY5 1-353): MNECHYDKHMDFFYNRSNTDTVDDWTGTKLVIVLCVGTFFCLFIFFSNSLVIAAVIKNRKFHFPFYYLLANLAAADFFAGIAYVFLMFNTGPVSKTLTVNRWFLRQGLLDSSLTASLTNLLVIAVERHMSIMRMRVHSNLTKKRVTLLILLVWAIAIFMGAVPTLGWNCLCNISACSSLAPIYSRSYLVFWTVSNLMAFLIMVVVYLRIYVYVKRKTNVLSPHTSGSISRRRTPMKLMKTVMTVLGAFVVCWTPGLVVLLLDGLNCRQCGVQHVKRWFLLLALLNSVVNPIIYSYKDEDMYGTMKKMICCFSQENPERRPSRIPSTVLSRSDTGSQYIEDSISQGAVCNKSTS
Experimental: as §1, §2
After incubating the cells with Fura-2 AM, the cells were rinsed with Krebs buffer and changes in the intracellular Ca^2+ concentration were monitored by determining the ratio of emitted light intensities at 520 nm in response to excitation at 340 and 380 nm using FLEXstation II (Molecular Devices, Sunnyvale, Calif.). Each well was monitored for 80-120 sec. […] EC50, IC50, and Ki values were calculated by fitting a sigmoid function to data points with the nonlinear curve-fitting feature of KaleidaGraph (Synergy Software, Essex Junction, Vt.).
Receptor activation using Ca^2+ mobilization assay. […] Using a FLEXStation (Molecular Devices, Sunnyvale, Calif.), changes in intracellular Ca^2+ concentration were monitored. Ligand-induced changes in fluorescence were monitored for 80-120 seconds. Ca^2+ transients were quantified automatically by calculating the difference between maximum and baseline ratio values for each sample. […] EC50, IC50, and Ki values were calculated as described. The ligand properties of the compounds were evaluated using Ca^2+ mobilization assay for assessing the activation/inhibition of LPA1, LPA2, and LPA3 expressed in RH7777 cells and LPA4 expressed in CHO cells.

LPA GPCRs = experiment: Ca2+ mobilization assay, overall profile across LPA GPCRs; format: cell-based, human; conditions: across LPA1-4
Experimental: After incubating the cells with Fura-2 AM, the cells were rinsed with Krebs buffer and changes in the intracellular Ca^2+ concentration were monitored by determining the ratio of emitted light intensities at 520 nm in response to excitation at 340 and 380 nm using FLEXstation II (Molecular Devices, Sunnyvale, Calif.). Each well was monitored for 80-120 sec. For testing agonist activity of the compounds, the test compounds were added automatically after 15 sec of baseline measurement. To determine antagonist properties, varying concentrations of the compounds were mixed with a constant concentration of LPA and responses were monitored. Each test was performed in quadruplicate. EC50, IC50, and Ki values were calculated by fitting a sigmoid function to data points with the nonlinear curve-fitting feature of KaleidaGraph (Synergy Software, Essex Junction, Vt.).
Receptor activation using Ca^2+ mobilization assay. The assay for mobilization of intracellular Ca^2+ was performed as described. Briefly, rat hepatoma RH7777 cells stably expressing human LPA1, LPA2, or LPA3, and CHO cells stably expressing LPA4, were loaded with Fura-2 AM (Molecular Probes). Using a FLEXStation (Molecular Devices, Sunnyvale, Calif.), changes in intracellular Ca^2+ concentration were monitored. Ligand-induced changes in fluorescence were monitored for 80-120 seconds. Ca^2+ transients were quantified automatically by calculating the difference between maximum and baseline ratio values for each sample. To determine antagonist properties, different concentrations of each analogue were mixed with either palmitoyl (16:0) or oleoyl (18:1) LPA (200 nM for LPA1 and LPA3, 10 nM for LPA2, and 400 nM for LPA4) (Avanti Polar Lipids, Inc., […], Ala.) and responses were recorded. Each test was performed in quadruplicate. EC50, IC50, and Ki values were calculated as described. The ligand properties of the compounds were evaluated using Ca^2+ mobilization assay for assessing the activation/inhibition of LPA1, LPA2, and LPA3 expressed in RH7777 cells and LPA4 expressed in CHO cells. Table l illustrates calcium responses elicited through the activation of human LPA1, LPA2, LPA3 and LPA4 receptors. These cell lines have been used extensively for the characterization of LPA GPCR ligands because RH7777 cells are intrinsically unresponsive to LPA and CHO cells show minimal endogenous responses to LPA unless transfected with LPA4.

In the case of `CCCCCCCCCCCCCCCC(=O)OC[C@@H](O)CC(Br)P(=O)(O)O` (mixture of isomers) [Compound 1, [1-Bromo-3(S)-hydroxyl-4-(palmitoyloxy)butyl]-phosphonate], the LPA1 ligand type (human LPA1) is reported as “Antagonist”, the LPA3 ligand type (human LPA3) is reported as “Partial Antagonist” and the “overall LPA GPCR ligand profile” value (LPA GPCRs) is reported as “pan-antagonist activity”. For the same molecule, the “overall LPA GPCR ligand profile” value (LPA GPCRs; listed as 19b) was “pan-antagonist”.
